This note sets out measurements from the supplement of paper PMC5355238.

Counter-ions that a name gives are not always drawn. ± gives the standard deviation of the averaged measurements. Some of the results follow. Single values are uncertain, as repeats are few or missing.

The test system of this test is Reh. The experiment in a line: S-phase gammaH2AX median, Z-score vs plate median (drug alone); higher = more S-phase DNA damage. To be noted: MK1775 concentration 0 nM; 10 µM; 4 h.
As to `CCCC(C(=O)OCCN(CC)CC)(c1ccccc1)c1ccccc1` [SKF-525A hydrochloride], the “S-phase gammaH2AX median (Z-score)” value is -0.123.

On to `COc1cc(CC(=O)O)ccc1O` [4-Hydroxy-3-methoxyphenylacetic acid], for which the “S-phase gammaH2AX median (Z-score)” value is -0.18.

Take `Clc1ccccc1C(c1ccccc1)(c1ccccc1)n1ccnc1` [Clotrimazole]: the “S-phase gammaH2AX median (Z-score)” value is -0.0757.

For `NC(=O)NO` [Hydroxyurea], the “S-phase gammaH2AX median (Z-score)” value was -0.142.

For the compound `Cc1c(CC(C)(C)C(=O)O)n(Cc2ccc(Cl)cc2)c2ccc(F)cc12`, the “S-phase gammaH2AX median (Z-score)” value came to 0.201.

`CN(C)C(=O)N=NC(=O)N(C)C` [N,N,N',N'-Tetramethylazodicarboxamide]: the “S-phase gammaH2AX median (Z-score)” value is -0.00945.

With `CC(=O)OC(C)C[N+](C)(C)C` (stereo not drawn) [Acetyl-beta-methylcholine chloride], the “S-phase gammaH2AX median (Z-score)” value was determined as 0.0175.

Take `C=CCc1ccccc1OCC(O)CNC(C)C` (stereo not drawn) [Alprenolol hydrochloride]: the “S-phase gammaH2AX median (Z-score)” value is -0.00971.

Take `Cc1nc(N=Nc2ccc(S(=O)(=O)O)cc2S(=O)(=O)O)c(COP(=O)(O)O)c(C=O)c1O`: the “S-phase gammaH2AX median (Z-score)” value was 0.

As to `CCCCC[C@H](CC(=O)NO)C(=O)N[C@H](C(=O)N1CCC[C@H]1CO)C(C)C` [Actinonin], the “S-phase gammaH2AX median (Z-score)” value is 0.0408.

Take `CN(C)CCC(c1ccccc1)c1ccccn1` (stereo not drawn) [Pheniramine maleate]: the “S-phase gammaH2AX median (Z-score)” value was -0.00473.

With `COC1=C(OC)C(=O)c2ccccc2C1=O` [2,3-Dimethoxy-1,4-naphthoquinone], the “S-phase gammaH2AX median (Z-score)” value is -0.0661.

For `CCOc1ccc(Cc2cc([C@@H]3O[C@H](CO)[C@@H](O)[C@H](O)[C@H]3O)ccc2Cl)cc1` [Dapagliflozin], the “S-phase gammaH2AX median (Z-score)” value worked out at 0.0445.

As to `CC(C)NCC(O)COc1cccc2ccccc12` (stereo not drawn) [(?)-Propranolol hydrochloride], the “S-phase gammaH2AX median (Z-score)” value was -0.0378.

In the case of `Oc1c2ccccc2c2c3c(cccc13)N=N2`, the “S-phase gammaH2AX median (Z-score)” value amounted to 0.0252.

As for `C=C(C)[C@@H]1CC=C(C(=O)O)CC1` [(-)-Perillic acid], the “S-phase gammaH2AX median (Z-score)” value was -0.0473.

With `COC(=O)[C@@H]1[C@H]2C[C@H]3c4[nH]c5ccccc5c4CCN3C[C@@H]2CC[C@@H]1O` [Yohimbine hydrochloride], the “S-phase gammaH2AX median (Z-score)” value was found to be 0.3.

For `CC(C)C[C@H](NC(=O)[C@H]1O[C@@H]1C(=O)O)C(=O)NCCCCN=C(N)N`, the “S-phase gammaH2AX median (Z-score)” value was -0.0945.

In the case of `CN(C)Cc1ccc(-c2nc3cccc4c3n2CCNC4=O)cc1`, the “S-phase gammaH2AX median (Z-score)” value was 0.194.

In the case of `Cc1[nH]c(/C=C2\C(=O)Nc3ccc(S(=O)(=O)N(C)c4cccc(Cl)c4)cc32)c(C)c1C(=O)N1CCN(C)CC1`, the “S-phase gammaH2AX median (Z-score)” value was 0.000387.

`CC1(C)NC(=O)N(c2ccc([N+](=O)[O-])c(C(F)(F)F)c2)C1=O` [Nilutamide]: the “S-phase gammaH2AX median (Z-score)” value is -0.168.

For `N#C/C(=C/c1ccc(O)c(O)c1)C(=O)N1CCc2ccccc21` [Tyrphostin AG 528], the “S-phase gammaH2AX median (Z-score)” value is 0.327.

For `O=C1CCc2cc(OCCCCc3nnnn3C3CCCCC3)ccc2N1` [Cilostazol], the “S-phase gammaH2AX median (Z-score)” value is -0.0388.

Consider `O=C(O)[C@H]1C[C@H](C(=O)O)N1` (relative stereo) [trans-Azetidine-2,4-dicarboxylic acid], for which the “S-phase gammaH2AX median (Z-score)” value stood at 0.0971.

Regarding `O=P(O)(O)C(Cl)(Cl)P(=O)(O)O` [Clodronic acid], the “S-phase gammaH2AX median (Z-score)” value was -0.0441.

Take `C[C@@H](NC(=O)/C(C#N)=C/c1ccc(O)c(O)c1)c1ccccc1` [Tyrphostin AG 527]: the “S-phase gammaH2AX median (Z-score)” value is 0.1.

Regarding `N=C(N)NCCC[C@H](N)C(=O)O` [L-Arginine], the “S-phase gammaH2AX median (Z-score)” value is -0.0932.

For the compound `Cc1nc2n(c(=O)c1CCN1CCC(c3noc4cc(F)ccc34)CC1)CCCC2` [Risperidone], the “S-phase gammaH2AX median (Z-score)” value was -0.254.

For the compound `CNCCC(Oc1ccc(C(F)(F)F)cc1)c1ccccc1` (stereo not drawn) [Fluoxetine hydrochloride], the “S-phase gammaH2AX median (Z-score)” value is -0.167.

Regarding `C#CCN1C(C)=C(C(=O)OC)C(c2cccc([N+](=O)[O-])c2)C(C(=O)OCC)=C1C` (stereo not drawn), the “S-phase gammaH2AX median (Z-score)” value is 0.0828.

Consider `CCCS(=O)(=O)Nc1ccc(F)c(C(=O)c2c[nH]c3ncc(-c4ccc(Cl)cc4)cc23)c1F` [Vemurafenib (PLX4032)], for which the “S-phase gammaH2AX median (Z-score)” value is -0.0159.

Regarding `CCCCNC(=O)NS(=O)(=O)c1ccc(C)cc1` [Tolbutamide], the “S-phase gammaH2AX median (Z-score)” value is -0.2.

With `C[N+](C)([O-])CCNc1ccc(NCC[N+](C)(C)[O-])c2c1C(=O)c1c(O)ccc(O)c1C2=O` [Banoxantrone dihydrochloride], the “S-phase gammaH2AX median (Z-score)” value was 1.87.

For the compound `CCCCCCCCCCC/C=C\C(C)(C)/C=C\CCCC(=O)O` [7,7-Dimethyl-(5Z,8Z)-eicosadienoic acid], the “S-phase gammaH2AX median (Z-score)” value was determined as 0.0283.

Regarding `COc1cc(Nc2ncc(F)c(Nc3ccc4c(n3)N(COP(=O)(O)O)C(=O)C(C)(C)O4)n2)cc(OC)c1OC`, the “S-phase gammaH2AX median (Z-score)” value was -0.0653.

For `Cc1nnc(C(C)C)n1C1C[C@H]2CC[C@@H](C1)N2CC[C@H](NC(=O)C1CCC(F)(F)CC1)c1ccccc1` (stereo in doubt) [Maraviroc], the “S-phase gammaH2AX median (Z-score)” value was -0.0437.

With `CSc1nc(N)c2ncn([C@@H]3O[C@H](COP(=O)(O)OP(=O)(O)OP(=O)(O)O)[C@H](O)C3O)c2n1` (stereo partly drawn) [2-Methylthioadenosine triphosphate tetrasodium], the “S-phase gammaH2AX median (Z-score)” value is -0.0932.

Turning to `CC(=O)C(C)=O` [2,3-Butanedione], the “S-phase gammaH2AX median (Z-score)” value is -0.11.

In the case of `Cn1cc(-c2ccc3nnc(C(F)(F)c4ccc5ncccc5c4)n3n2)cn1`, the “S-phase gammaH2AX median (Z-score)” value is 0.154.

Take `CN1[C@@H](CC(=O)c2ccccc2)CCC[C@H]1C[C@H](O)c1ccccc1` [alpha-Lobeline hydrochloride]: the “S-phase gammaH2AX median (Z-score)” value is -0.189.

As for `CCC(CC)CC1(C(=O)Nc2ccccc2SC(=O)C(C)C)CCCCC1`, the “S-phase gammaH2AX median (Z-score)” value stood at 0.198.

As for `C[C@]12CC[C@@H]3c4ccc(O)cc4CC[C@H]3[C@@H]1CCC2=O` [Estrone], the “S-phase gammaH2AX median (Z-score)” value is 0.0252 ± 0.071.

On to `CC(=O)OCC1=C(C(=O)O)N2C(=O)[C@@H](NC(=O)CSc3ccncc3)[C@H]2SC1` [Cephapirin sodium], for which the “S-phase gammaH2AX median (Z-score)” value stood at 0.0388.

For the compound `CCCCCCCCc1ccc(CCC(N)(CO)CO)cc1` [Fingolimod (FTY720)], the “S-phase gammaH2AX median (Z-score)” value was -0.195.

Take `CCCCCCCC/C=C\CCCCCCCC(=O)NCCc1ccc(O)c(O)c1` [N-Oleoyldopamine]: the “S-phase gammaH2AX median (Z-score)” value is 10.9.

On to `CNCCC(Oc1ccccc1OC)c1ccccc1` (stereo not drawn) [Nisoxetine hydrochloride], for which the “S-phase gammaH2AX median (Z-score)” value was 0.206.

For the compound `CC1CNCCN1S(=O)(=O)c1cccc2cnccc12` (stereo not drawn) [H-7 dihydrochloride], the “S-phase gammaH2AX median (Z-score)” value is -0.101.

Turning to `CC1CNCCN1S(=O)(=O)c1cccc2cnccc12` (stereo not drawn), the “S-phase gammaH2AX median (Z-score)” value is -0.0346.

For the compound `O=NN(CCCl)C(=O)NC1CCCCC1` [Lomustine (CeeNU)], the “S-phase gammaH2AX median (Z-score)” value was 0.213.

`CC1CN(S(=O)(=O)c2cccc3cnccc23)CCN1` (stereo not drawn): the “S-phase gammaH2AX median (Z-score)” value was found to be 0.126.

On to `CCOC(=O)C1=C[C@]2(CC)CCCN3CCc4c(n1c1ccccc41)[C@@H]32` [Vinpocetine (Cavinton)], for which the “S-phase gammaH2AX median (Z-score)” value was -0.0104.

Consider `CCOC(=O)C1=C[C@]2(CC)CCCN3CCc4c(n1c1ccccc41)[C@@H]32` [Vinpocetine], for which the “S-phase gammaH2AX median (Z-score)” value was -0.0133.

`COc1ccc(CNC(=O)Nc2ncc([N+](=O)[O-])s2)cc1`: the “S-phase gammaH2AX median (Z-score)” value is -0.0151.

Regarding `O=C1N(c2ccccc2)c2ccccc2C1(Cc1ccncc1)Cc1ccncc1` [Linopirdine], the “S-phase gammaH2AX median (Z-score)” value is -0.173.

Consider `CCCn1c(=O)c2[nH]c(-c3ccc(S(=O)(=O)O)cc3)nc2n(CCC)c1=O` [1,3-Dipropyl-8-p-sulfophenylxanthine], for which the “S-phase gammaH2AX median (Z-score)” value is -0.0777.

For `Cc1ccccc1N1C(=O)c2cc(S(N)(=O)=O)c(Cl)cc2NC1C` (stereo not drawn) [Metolazone], the “S-phase gammaH2AX median (Z-score)” value is -0.00473.

Consider `COc1nc(-c2ccc3c(c2)OCO3)n(-c2ccc(NC(=O)CSc3ccccc3)cc2)n1` [SecinH3], for which the “S-phase gammaH2AX median (Z-score)” value was found to be 0.00193.

Regarding `Nc1nc(SCc2ccc([N+](=O)[O-])cc2)c2ncn([C@@H]3O[C@H](CO)[C@H](O)C3O)c2n1` (stereo partly drawn) [S-(4-Nitrobenzyl)-6-thioguanosine], the “S-phase gammaH2AX median (Z-score)” value was -0.0563.

Consider `Nc1cccc2c1CN(C1CCC(=O)NC1=O)C2=O` (stereo not drawn) [Lenalidomide], for which the “S-phase gammaH2AX median (Z-score)” value was found to be 0.123.

On to `NOCC(=O)O` [O-(Carboxymethyl)hydroxylamine hemihydrochloride], for which the “S-phase gammaH2AX median (Z-score)” value is 0.035.

Take `CC1=C(CC(=O)O)c2cc(F)ccc2/C1=C\c1ccc([S+](C)[O-])cc1` (stereo not drawn) [Sulindac]: the “S-phase gammaH2AX median (Z-score)” value was determined as 0.207.

On to `C=CC(=O)N1CCC[C@@H](n2nc(-c3ccc(Oc4ccccc4)cc3)c3c(N)ncnc32)C1`, for which the “S-phase gammaH2AX median (Z-score)” value was -0.135.

Regarding `CCc1cccc2c3c([nH]c12)C(CC)(CC(=O)O)OCC3` (stereo not drawn) [Etodolac], the “S-phase gammaH2AX median (Z-score)” value was -0.0661.

Regarding `C[C@@H]1CN(CC(=O)Nc2ccc3c(c2)Cc2cccc(-c4cc(=O)cc(N5CCOCC5)o4)c2S3)C[C@H](C)O1`, the “S-phase gammaH2AX median (Z-score)” value was -0.0862.

Regarding `CN(C)CCCO[C@@H]1[C@H]2OC(C)(C)O[C@H]2O[C@@H]1[C@H](O)CO` [Amiprilose hydrochloride], the “S-phase gammaH2AX median (Z-score)” value came out at 0.00194.

As for `Cc1nc(N)sc1-c1ccnc(Nc2ccc(N3CCOCC3)cc2)n1`, the “S-phase gammaH2AX median (Z-score)” value was -0.0607.

For `CN(C)[C@@H]1C(O)=C(C(N)=O)C(=O)[C@@]2(O)C(O)=C3C(=O)c4c(O)ccc(Cl)c4[C@@H](O)[C@H]3C[C@@H]12` [Demeclocycline hydrochloride], the “S-phase gammaH2AX median (Z-score)” value came out at 0.0126.

For the compound `O=C(O)/C(=C\c1c(C(=O)O)[nH]c2cc(Cl)cc(Cl)c12)c1ccccc1`, the “S-phase gammaH2AX median (Z-score)” value was -0.0355.

With `N[C@@H](C(=O)N[C@@H]1C(=O)N2C(C(=O)O)=C(Cl)CS[C@H]12)c1ccccc1` [Cefaclor], the “S-phase gammaH2AX median (Z-score)” value was determined as 0.109.

Take `NCCS(=O)O` [Hypotaurine]: the “S-phase gammaH2AX median (Z-score)” value came out at 0.148.

As for `O=C(O)c1cc(O)c2ccc(Cl)cc2n1` [7-Chlorokynurenic acid], the “S-phase gammaH2AX median (Z-score)” value was -0.00388.

In the case of `CC(C)NC[C@H](O)c1ccc(O)c(O)c1` [R(-)-Isoproterenol (+)-bitartrate], the “S-phase gammaH2AX median (Z-score)” value came out at 0.107.

Turning to `CC[C@@H]1/C=C(\C)C[C@H](C)C[C@H](OC)[C@H]2O[C@@](O)(C(=O)C(=O)N3CCCC[C@H]3C(=O)O[C@H](/C(C)=C/[C@@H]3CC[C@H](Cl)[C@H](OC)C3)[C@H](C)[C@@H](O)CC1=O)[C@H](C)C[C@@H]2OC` [Pimecrolimus], the “S-phase gammaH2AX median (Z-score)” value is -0.0746.

For the compound `Brc1c(NC2=NCCN2)ccc2nccnc12`, the “S-phase gammaH2AX median (Z-score)” value came out at 0.374.

Take `CN(C)CCOC(=O)COc1ccc(Cl)cc1` [Centrophenoxine hydrochloride]: the “S-phase gammaH2AX median (Z-score)” value turned out to be 0.0738.

With `N=C(N)N/N=C/c1c(Cl)cccc1Cl` [Guanabenz acetate], the “S-phase gammaH2AX median (Z-score)” value worked out at 0.

`OC(CCN1CCCCC1)(c1ccccc1)C1CCCCC1` (stereo not drawn) [Trihexyphenidyl hydrochloride]: the “S-phase gammaH2AX median (Z-score)” value was found to be 0.394.

For the compound `N#C/C(=C\c1ccc(O)c(O)c1)C(=O)NCCCNC(=O)/C(C#N)=C/c1ccc(O)c(O)c1` [Tyrphostin AG 537], the “S-phase gammaH2AX median (Z-score)” value was 0.267.
